Laboratory results taken from article doi:10.1101/2024.05.27.596010.

Protein sequences, listed by entry. Tags and fused reporters are not part of them. Lines headed by an entry give the natural chain unless they say otherwise; changes in a name come on top.
UniProt P02545: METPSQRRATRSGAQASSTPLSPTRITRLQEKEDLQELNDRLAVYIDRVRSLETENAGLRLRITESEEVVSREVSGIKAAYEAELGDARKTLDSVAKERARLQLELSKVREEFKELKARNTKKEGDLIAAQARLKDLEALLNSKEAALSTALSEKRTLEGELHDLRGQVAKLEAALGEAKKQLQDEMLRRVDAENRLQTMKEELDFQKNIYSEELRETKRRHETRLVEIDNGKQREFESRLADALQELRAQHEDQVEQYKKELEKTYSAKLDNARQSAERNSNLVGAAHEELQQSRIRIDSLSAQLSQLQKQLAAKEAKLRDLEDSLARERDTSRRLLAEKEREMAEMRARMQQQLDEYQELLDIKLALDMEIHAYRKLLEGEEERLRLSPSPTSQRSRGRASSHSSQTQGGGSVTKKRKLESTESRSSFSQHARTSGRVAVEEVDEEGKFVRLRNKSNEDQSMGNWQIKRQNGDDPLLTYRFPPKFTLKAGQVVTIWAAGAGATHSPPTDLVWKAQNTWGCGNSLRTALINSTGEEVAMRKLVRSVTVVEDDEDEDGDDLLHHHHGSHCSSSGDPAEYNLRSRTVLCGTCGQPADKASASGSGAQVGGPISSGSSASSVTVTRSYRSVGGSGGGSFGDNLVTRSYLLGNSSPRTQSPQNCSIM
UniProt P22216: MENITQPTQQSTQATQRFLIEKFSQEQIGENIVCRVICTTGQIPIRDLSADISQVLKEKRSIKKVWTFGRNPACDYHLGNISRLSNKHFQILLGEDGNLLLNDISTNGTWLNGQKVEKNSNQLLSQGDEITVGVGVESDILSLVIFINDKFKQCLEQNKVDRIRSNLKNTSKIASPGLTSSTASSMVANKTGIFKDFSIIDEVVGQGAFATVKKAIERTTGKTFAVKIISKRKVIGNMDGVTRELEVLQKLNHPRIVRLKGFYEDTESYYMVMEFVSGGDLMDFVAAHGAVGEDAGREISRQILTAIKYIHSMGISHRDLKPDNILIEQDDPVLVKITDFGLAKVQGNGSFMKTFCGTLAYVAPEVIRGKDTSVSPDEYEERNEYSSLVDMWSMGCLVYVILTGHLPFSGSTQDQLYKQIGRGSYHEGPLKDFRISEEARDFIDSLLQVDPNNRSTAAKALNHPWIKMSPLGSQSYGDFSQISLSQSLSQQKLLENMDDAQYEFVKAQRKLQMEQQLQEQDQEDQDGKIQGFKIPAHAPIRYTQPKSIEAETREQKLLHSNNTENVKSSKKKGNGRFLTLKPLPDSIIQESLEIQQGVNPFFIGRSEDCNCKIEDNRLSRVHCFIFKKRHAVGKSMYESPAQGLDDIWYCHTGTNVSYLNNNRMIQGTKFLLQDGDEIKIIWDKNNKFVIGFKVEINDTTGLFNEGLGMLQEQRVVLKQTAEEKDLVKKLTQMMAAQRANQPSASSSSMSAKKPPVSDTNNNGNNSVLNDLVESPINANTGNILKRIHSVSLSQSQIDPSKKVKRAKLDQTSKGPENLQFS

Target: full-length lamin A S392A of the S392A LAPS mutant biosensor (UniProt P02545)
Assay: FRET or BRET

binding: binds
Substance: FHA2 domain of the lamin A phosphorylation sensor (LAPS), wild type (from UniProt P22216) (domain or fragment)

No constants are given. Whether binding was seen depends on the method and setting. In cells and extracts the contact can be indirect. A result given as binding can be weak or reduced; the word gives no strength.
